Results on one molecule are retold here after paper PMC2629585.

Amino acid sequences for entries named in this document (tags omitted). Residues count along the entry.
UniProt O75636, residues 24-299: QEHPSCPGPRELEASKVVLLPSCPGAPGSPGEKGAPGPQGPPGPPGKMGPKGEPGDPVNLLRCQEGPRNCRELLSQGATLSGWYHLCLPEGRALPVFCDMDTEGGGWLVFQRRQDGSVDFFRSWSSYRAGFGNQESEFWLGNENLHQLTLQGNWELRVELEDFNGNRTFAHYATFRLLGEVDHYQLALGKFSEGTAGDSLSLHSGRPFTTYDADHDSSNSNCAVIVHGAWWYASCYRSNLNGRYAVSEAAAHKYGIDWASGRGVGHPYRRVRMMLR
UniProt O00602, residues 30-326: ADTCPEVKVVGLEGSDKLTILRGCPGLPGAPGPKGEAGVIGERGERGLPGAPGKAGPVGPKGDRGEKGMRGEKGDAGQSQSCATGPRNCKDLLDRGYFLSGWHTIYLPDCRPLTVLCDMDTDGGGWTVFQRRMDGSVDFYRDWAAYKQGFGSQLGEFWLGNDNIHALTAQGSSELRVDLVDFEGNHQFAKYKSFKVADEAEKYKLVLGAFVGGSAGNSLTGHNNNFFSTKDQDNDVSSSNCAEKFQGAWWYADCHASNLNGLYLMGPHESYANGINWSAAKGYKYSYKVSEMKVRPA

These are yes or no findings as the source states them, for the method shown. Some results given as binding are weak or reduced against the parent protein; the word gives no strength.

The target of experiment [1] is H-ficolin (human) (UniProt O75636). As to the kind of experiment: ELISA; 0.8 ug ficolin (L-, M- or H-) immobilised first on Maxisorp wells, CRP added; bound CRP detected by antibody; HSA-coated wells subtracted; both purified. Background: In an ELISA, binding on a coated surface is turned into a signal by an enzyme label.
For experiment [2], the target named is M-ficolin, recombinant (UniProt O00602). The experiment is described as above.

B1: C-reactive protein (CRP), human, purified (Sigma) (protein, UniProt P02741 19-224)
chain: QTDMSRKAFVFPKESDTSYVSLKAPLTKPLKAFTVCLHFYTELSSTRGYSIFSYATKRQDNEILIFWSKDIGYSFTVGGSEILFEVPEVTVAPVHICTSWESASGIVEFWVDGKPRVRKSLKKGYTVGAEASIILGQEQDSFGGNFEGSQSLVGDIGNVNMWDFVLSPDEINTIYLGGPFSPNVLNWRALKYEVQGEVFTKPQLWP
As for B1, the values for the binding result in experiment [1] and in experiment [2] were “no binding” and “binds”, respectively.
